Laboratory results from PMC4600948.

Protein sequences, listed by entry. Tags and fused reporters are not part of them. Lines headed by an entry give the natural chain unless they say otherwise; changes in a name come on top.
UniProt O14746: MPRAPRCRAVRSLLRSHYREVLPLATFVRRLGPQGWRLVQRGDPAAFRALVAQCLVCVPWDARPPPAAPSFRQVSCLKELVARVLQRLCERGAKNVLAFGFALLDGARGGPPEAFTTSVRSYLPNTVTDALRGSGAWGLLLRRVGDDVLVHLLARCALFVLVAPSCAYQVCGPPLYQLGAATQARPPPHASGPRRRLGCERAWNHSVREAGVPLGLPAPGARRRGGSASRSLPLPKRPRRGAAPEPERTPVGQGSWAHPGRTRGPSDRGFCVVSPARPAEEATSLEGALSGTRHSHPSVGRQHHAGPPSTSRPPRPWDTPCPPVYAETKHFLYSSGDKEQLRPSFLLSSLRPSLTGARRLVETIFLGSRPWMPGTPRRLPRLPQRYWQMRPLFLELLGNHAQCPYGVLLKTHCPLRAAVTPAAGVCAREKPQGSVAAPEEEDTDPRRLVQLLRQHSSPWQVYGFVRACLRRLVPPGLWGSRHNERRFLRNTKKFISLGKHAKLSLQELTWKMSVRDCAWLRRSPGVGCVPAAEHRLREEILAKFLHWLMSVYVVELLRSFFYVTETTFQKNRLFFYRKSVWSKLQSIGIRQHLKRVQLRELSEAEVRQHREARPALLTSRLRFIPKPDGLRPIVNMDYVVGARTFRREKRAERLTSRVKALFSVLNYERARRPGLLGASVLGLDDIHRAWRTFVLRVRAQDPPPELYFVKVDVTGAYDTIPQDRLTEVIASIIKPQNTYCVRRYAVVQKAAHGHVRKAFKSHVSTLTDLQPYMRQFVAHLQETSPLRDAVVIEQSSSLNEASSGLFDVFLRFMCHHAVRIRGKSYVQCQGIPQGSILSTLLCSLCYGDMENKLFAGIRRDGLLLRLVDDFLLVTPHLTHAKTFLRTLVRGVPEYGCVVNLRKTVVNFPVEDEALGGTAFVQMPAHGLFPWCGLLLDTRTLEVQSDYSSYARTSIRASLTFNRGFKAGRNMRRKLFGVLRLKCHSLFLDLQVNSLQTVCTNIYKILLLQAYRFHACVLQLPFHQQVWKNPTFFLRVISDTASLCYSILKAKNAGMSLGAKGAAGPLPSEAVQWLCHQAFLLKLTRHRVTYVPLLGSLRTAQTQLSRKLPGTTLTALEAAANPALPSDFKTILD

How the values were obtained:
[1] = biological target: MCP-TERT minimal RNP (RRL, WT) (Homo sapiens) (UniProt O14746); assay: single-molecule TIRF, immobilized TERT; details: DNA 0.3-30 nM (and 100 nM), 15 min, 500 nM blocking oligo pre-incubation, wash before imaging, residues 1-1132, protein details: 3xFLAG-MCP N-terminal, biotin or Cy5 via CoA, label: 5'-Cy5, single-stranded DNA
[2] = biological target: MCP-TERT telomerase holoenzyme (293T, WT) (Homo sapiens) (UniProt O14746); assay: single-molecule TIRF, immobilized TERT; details: DNA 0.3-30 nM (and 100 nM), 15 min, 500 nM blocking oligo pre-incubation, wash before imaging, protein in a lysate after overexpression, residues 1-1132, protein details: 3xFLAG-MCP N-terminal, biotin or Cy5 via CoA, label: 5'-Cy5, single-stranded DNA

Sequence: TTAGGGTTAGGG [Cy5-(T2AG3)2]
- Kd ([1]; RRL-F, hTRmin RNP plus hTR-free TERT, protein translated in …): 14.7 nM
- Kd ([1]; RRL-O, hTRmin RNP, protein translated in vitro): 8.7 nM
- Kd ([2]; 293T-F, hTR RNP plus hTR-free TERT, ~4-fold more binding at 100 vs 30 nM): 5.4 nM
- Kd ([2]; 293T-O, hTR RNP, no added binding at 100 vs 30 nM): 4.9 nM

The exact form of at least one protein or probe is not confirmed. For some of these results: At least one result comes from cells or an extract, where the contact may be indirect.
